Values of other authors as cited in US11911398B2, “Treating Vitamin D insufficiency and deficiency with 25-hydroxyvitamin D2 and 25-hydroxyvitamin D3” (OPKO RENAL, LLC, priority 2006, dated 2024).
Some of these results come from one statement about several compounds together. For at least one compound, name, drawing or mass did not settle the structure.

Molecular target: T1, intracellular Vitamin D receptors (VDR) (Homo sapiens, UniProt P11473)
T1 sequence (P11473 1-427): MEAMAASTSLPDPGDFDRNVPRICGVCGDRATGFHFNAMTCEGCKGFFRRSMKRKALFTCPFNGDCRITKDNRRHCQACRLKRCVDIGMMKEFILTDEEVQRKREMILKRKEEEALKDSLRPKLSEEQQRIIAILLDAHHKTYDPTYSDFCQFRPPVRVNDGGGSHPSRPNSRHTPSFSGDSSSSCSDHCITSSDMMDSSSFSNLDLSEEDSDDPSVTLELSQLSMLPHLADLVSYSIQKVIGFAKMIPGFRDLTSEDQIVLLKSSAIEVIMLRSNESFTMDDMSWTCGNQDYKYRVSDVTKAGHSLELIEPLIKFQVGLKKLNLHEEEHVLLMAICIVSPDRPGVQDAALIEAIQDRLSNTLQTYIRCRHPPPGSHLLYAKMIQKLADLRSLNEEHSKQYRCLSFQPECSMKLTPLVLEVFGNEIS
Conditions: estimated; relative to Vitamin D hormones

C=C1CC[C@H](O)C/C1=C/C=C1\CCC[C@]2(C)[C@@H]([C@H](C)/C=C/[C@H](C)C(C)(C)O)CC[C@@H]12 [25-hydroxyvitamin D2]
affinities for the VDR, fold lower than those of the Vitamin D hormones: at least 100 fold
